Test results from the supplement of paper PMC10849652.
The list shows a part of the results.

Protein sequences, listed by entry. Tags and fused reporters are not part of them. Lines headed by an entry give the natural chain unless they say otherwise; changes in a name come on top.
UniProt P25791: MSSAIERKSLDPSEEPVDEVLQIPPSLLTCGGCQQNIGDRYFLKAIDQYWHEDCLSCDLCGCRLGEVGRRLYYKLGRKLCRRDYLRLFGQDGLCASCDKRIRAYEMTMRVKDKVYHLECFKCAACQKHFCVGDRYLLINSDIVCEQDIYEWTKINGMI
UniProt Q8TDW0: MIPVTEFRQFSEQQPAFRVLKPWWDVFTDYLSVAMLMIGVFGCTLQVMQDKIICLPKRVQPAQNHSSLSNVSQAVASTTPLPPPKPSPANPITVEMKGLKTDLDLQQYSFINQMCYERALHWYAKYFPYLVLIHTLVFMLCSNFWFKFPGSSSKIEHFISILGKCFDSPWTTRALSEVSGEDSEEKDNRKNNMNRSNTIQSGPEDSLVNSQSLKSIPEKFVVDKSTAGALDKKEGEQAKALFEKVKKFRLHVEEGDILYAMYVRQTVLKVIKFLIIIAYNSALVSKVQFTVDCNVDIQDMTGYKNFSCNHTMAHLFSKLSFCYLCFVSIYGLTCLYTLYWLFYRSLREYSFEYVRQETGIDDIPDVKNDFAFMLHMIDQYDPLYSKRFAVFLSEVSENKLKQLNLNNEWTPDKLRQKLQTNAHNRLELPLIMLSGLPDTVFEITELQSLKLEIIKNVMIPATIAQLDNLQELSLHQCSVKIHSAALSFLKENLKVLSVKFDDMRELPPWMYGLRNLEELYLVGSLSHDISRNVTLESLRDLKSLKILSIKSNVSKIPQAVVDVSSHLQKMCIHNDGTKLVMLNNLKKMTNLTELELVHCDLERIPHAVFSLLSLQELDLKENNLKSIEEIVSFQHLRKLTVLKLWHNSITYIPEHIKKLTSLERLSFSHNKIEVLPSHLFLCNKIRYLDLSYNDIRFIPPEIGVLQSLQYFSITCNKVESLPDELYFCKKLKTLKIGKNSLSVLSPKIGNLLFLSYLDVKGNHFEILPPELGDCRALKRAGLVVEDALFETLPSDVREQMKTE
UniProt Q9H6V9: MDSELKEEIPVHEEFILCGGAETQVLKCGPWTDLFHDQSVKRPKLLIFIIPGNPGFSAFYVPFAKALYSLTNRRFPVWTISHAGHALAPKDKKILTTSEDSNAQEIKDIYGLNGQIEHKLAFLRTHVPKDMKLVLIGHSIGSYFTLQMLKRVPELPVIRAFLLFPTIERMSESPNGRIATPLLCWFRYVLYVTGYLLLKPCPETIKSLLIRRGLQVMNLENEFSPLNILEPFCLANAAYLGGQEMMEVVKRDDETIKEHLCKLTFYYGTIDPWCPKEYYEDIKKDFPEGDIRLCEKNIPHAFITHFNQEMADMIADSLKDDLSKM
UniProt O75427: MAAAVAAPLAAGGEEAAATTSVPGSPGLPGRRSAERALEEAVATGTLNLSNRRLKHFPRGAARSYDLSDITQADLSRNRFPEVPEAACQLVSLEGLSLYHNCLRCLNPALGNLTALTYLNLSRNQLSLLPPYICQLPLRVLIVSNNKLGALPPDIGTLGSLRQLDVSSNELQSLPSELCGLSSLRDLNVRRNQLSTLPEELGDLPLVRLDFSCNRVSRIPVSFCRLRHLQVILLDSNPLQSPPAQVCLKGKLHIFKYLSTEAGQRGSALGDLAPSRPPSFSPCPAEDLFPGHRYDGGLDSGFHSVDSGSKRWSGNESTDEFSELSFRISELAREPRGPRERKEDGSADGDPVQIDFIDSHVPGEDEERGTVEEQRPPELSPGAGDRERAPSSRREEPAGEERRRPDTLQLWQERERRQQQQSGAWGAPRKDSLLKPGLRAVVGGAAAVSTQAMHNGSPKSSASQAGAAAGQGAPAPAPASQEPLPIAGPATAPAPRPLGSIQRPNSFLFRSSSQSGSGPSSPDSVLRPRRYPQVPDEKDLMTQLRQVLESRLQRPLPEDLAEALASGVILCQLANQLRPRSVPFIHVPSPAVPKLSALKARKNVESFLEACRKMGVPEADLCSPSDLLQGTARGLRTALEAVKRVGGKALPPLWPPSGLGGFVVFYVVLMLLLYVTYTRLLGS
UniProt Q13094: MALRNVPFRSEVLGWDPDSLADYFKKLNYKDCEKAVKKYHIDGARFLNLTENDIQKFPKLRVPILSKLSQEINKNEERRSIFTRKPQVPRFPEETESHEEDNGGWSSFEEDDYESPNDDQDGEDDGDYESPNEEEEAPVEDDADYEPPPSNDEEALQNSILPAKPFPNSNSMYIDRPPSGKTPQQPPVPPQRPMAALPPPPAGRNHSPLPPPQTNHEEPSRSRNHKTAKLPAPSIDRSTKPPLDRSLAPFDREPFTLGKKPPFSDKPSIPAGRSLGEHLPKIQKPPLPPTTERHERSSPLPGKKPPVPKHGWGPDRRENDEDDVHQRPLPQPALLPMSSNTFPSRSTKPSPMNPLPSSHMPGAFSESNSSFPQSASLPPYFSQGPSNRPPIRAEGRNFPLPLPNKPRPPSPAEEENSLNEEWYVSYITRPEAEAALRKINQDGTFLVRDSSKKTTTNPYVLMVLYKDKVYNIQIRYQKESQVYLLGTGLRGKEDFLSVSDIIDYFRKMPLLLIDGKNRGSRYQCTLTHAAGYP
UniProt Q9BX40: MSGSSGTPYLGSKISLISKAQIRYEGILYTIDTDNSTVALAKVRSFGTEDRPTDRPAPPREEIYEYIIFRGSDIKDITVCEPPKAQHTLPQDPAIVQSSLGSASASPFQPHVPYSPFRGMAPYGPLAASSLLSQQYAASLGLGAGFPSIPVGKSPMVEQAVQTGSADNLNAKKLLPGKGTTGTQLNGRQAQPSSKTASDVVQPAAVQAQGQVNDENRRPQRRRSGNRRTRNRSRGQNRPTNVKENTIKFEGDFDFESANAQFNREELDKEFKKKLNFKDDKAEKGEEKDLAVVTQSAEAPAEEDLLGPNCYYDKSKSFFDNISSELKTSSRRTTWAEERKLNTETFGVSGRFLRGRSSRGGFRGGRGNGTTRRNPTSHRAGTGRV
UniProt O00214: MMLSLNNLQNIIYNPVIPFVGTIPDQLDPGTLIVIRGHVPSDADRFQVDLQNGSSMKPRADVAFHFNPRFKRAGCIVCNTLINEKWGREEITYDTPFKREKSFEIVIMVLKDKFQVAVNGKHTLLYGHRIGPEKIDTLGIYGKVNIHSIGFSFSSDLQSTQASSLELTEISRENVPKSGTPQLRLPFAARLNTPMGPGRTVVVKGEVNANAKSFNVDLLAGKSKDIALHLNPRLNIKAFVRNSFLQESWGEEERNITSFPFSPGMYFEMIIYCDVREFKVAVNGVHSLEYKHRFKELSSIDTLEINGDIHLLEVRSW
UniProt Q9NUP9: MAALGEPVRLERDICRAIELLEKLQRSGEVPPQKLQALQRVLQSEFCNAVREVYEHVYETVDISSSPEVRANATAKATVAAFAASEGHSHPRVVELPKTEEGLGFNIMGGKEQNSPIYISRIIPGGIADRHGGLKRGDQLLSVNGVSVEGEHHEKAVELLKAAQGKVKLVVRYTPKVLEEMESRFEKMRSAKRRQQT
UniProt Q8N9N7: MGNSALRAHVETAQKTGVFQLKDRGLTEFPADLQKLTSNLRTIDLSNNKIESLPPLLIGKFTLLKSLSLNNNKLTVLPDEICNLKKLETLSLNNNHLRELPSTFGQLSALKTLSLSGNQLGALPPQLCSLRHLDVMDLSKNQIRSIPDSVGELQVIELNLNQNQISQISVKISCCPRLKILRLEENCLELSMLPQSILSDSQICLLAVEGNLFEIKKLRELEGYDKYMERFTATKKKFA
UniProt P49257: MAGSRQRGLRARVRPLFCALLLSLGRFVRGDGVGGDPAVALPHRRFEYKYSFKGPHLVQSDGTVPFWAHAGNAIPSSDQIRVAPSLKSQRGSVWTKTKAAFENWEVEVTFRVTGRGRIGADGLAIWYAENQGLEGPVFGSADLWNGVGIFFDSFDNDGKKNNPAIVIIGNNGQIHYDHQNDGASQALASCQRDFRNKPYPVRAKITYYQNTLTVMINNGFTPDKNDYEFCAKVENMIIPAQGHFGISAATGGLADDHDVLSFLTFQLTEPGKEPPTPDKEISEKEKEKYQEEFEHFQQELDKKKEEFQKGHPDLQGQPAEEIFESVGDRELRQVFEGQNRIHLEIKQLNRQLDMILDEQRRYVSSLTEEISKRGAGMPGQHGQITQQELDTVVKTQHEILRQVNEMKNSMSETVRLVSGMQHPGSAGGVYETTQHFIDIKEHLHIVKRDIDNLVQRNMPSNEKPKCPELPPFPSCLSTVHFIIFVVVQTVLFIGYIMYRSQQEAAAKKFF
UniProt P20700: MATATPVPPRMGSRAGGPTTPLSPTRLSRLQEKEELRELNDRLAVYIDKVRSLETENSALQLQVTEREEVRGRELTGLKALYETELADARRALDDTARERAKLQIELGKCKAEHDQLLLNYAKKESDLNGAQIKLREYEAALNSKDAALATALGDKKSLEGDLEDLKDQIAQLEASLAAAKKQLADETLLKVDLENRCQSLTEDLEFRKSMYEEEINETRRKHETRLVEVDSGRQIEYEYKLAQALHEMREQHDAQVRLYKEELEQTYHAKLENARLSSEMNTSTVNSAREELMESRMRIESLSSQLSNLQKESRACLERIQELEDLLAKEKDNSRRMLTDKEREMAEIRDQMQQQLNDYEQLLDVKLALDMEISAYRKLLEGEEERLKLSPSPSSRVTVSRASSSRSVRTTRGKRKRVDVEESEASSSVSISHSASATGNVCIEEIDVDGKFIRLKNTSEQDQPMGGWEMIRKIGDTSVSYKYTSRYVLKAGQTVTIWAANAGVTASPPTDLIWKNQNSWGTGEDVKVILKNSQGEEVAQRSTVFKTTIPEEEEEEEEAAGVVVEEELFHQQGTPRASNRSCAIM
UniProt Q9Y333: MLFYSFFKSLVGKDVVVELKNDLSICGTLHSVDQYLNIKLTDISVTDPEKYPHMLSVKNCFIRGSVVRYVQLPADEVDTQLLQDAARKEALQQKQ
UniProt Q96II8: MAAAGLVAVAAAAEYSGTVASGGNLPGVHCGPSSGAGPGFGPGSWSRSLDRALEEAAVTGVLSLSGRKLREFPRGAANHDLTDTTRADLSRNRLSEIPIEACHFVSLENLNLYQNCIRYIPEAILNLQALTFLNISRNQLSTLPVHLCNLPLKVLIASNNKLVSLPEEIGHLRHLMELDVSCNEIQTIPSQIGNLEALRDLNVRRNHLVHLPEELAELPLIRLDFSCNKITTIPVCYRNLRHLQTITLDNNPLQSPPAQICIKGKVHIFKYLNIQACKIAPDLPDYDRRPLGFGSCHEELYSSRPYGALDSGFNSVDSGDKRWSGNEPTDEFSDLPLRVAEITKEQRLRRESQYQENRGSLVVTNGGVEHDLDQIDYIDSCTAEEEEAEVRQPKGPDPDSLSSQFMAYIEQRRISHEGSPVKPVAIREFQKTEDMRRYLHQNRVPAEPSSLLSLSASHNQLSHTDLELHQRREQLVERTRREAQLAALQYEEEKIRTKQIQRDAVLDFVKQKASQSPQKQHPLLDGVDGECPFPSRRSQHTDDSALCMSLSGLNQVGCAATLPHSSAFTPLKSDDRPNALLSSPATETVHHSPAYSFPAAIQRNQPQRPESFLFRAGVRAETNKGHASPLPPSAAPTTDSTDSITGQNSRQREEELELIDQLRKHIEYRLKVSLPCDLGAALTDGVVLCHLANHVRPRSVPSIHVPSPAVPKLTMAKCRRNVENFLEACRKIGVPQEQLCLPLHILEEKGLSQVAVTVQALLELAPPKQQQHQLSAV
UniProt P49917: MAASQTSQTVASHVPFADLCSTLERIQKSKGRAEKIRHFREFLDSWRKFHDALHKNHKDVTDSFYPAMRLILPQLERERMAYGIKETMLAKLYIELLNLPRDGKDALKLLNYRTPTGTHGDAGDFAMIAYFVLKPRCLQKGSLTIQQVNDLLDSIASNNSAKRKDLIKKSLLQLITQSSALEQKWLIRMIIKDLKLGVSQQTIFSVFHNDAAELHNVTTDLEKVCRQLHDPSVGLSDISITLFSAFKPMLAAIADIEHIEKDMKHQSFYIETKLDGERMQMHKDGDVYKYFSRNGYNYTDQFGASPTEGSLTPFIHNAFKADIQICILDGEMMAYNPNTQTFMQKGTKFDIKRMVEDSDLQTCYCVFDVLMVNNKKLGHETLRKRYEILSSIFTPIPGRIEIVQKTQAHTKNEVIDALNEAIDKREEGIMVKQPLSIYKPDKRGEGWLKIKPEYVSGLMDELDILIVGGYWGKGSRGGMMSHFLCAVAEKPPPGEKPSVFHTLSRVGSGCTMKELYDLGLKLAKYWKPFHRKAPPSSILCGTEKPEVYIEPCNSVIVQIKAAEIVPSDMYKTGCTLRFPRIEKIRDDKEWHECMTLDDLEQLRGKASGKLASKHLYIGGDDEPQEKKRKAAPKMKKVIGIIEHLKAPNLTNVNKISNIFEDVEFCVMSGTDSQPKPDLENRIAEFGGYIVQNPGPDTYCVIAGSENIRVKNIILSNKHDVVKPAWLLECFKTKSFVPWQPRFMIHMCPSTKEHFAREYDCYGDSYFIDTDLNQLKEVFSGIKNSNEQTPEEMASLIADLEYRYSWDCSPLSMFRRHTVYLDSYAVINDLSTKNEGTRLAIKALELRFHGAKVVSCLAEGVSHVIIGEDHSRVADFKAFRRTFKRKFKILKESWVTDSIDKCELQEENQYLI

Each target was assayed with Cc1cn(-c2cc(NC(=O)c3ccc(C)c(Nc4nccc(-c5cccnc5)n4)c3)cc(C(F)(F)F)c2)cn1 [nilotinib] (assay: log2 fold change, soluble protein after heating vs DMSO (PISA); higher = thermal stabilisation; K562 lysate, 10 uM; active = over 0.2 and 3.5 SD of the protein, either way, in both replicates (recomputed)).
How it was run: (§1)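 Log-two fold change in thermal stability relative to solvent controls is reported from duplicates. For each sample, crude K562 extract from dounce-homogenised pellets in PBS pH 7.4 with 1 mM MgCl2, at 1 mg/mL protein, was treated with 10 μM compound for 30 min. Aliquots heated for 3 min across 48°C-58°C were pooled, brought to 0.5% NP-40 at 4°C and cleared at 21,000xg for 90 min. The supernatant was quantified by TMTpro 16plex LC-MS/MS with channel sums equalised.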

log2 fold change, inactive:
LRPPRC (UniProt P42704) -0.019
LETMD1 isoform 7 (UniProt Q6P1Q0) 0.088
LARS2 (UniProt Q15031) -0.002
LMNB2 (UniProt Q03252) -0.03
LCLAT1 (UniProt Q6UWP7) -0.015
LEO1 (UniProt Q8WVC0) -0.018
LCMT2 (UniProt O60294) -0.015
LRRC8B (UniProt Q6P9F7) 0.161
LCMT1 (UniProt Q9UIC8) -0.015
LRBA, A0A494BZW2 -0.305
LMO2 isoform 3 (UniProt P25791) 0.067
LRRC8C (UniProt Q8TDW0) -0.148
LDAH isoform 2 (UniProt Q9H6V9) -0.062
LMAN2L isoform 2 (UniProt Q9H0V9) 0.028
LRCH4 (UniProt O75427) 0.16
LCP2 (UniProt Q13094) -0.002
LAS1L (UniProt Q9Y4W2) -0.019
LRWD1 (UniProt Q9UFC0) 0.026
LSM14B isoform 2 (UniProt Q9BX40) -0.034
LGALS8 isoform 2 (UniProt O00214) -0.01
LIMD1 (UniProt Q9UGP4) -0.01
LDHA isoform 3 (UniProt P00338) -0.021
LIN7C (UniProt Q9NUP9) 0.003
LRRC8D (UniProt Q7L1W4) 0.053
LIMA1 isoform 4 (UniProt Q9UHB6) 0.032
LRRC57 (UniProt Q8N9N7) 0.004
LMAN1 (UniProt P49257) -0.024
LMNB1 (UniProt P20700) 0.039
LSM2 (UniProt Q9Y333) 0
LINS1 (UniProt Q8NG48) -0.008
LIG1 (UniProt P18858) -0.002
LMBRD1 (UniProt Q9NUN5) 0
LRRCC1 (UniProt Q9C099) -0.093
LRCH3 (UniProt Q96II8) -0.003
LIG4 (UniProt P49917) 0.02
LRRC59 (UniProt Q96AG4) 0.014
LSR (UniProt Q86X29) 0.011
LIN9 isoform 2 (UniProt Q5TKA1) -0.051
LNPK (UniProt Q9C0E8) -0.002

These targets were tested with Cc1nc(Nc2n[nH]c3c2CN(C(=O)N[C@H](CN(C)C)c2ccccc2)C3(C)C)c2sccc2n1 in the same assay as above.
How it was run: as §1

log2 fold change, inactive:
LRPPRC (UniProt P42704) -0.004
LETMD1 isoform 7 (UniProt Q6P1Q0) -0.028
LARS2 (UniProt Q15031) 0.048
LMNB2 (UniProt Q03252) 0.015
LCLAT1 (UniProt Q6UWP7) 0.011
LEO1 (UniProt Q8WVC0) -0.008
LCMT2 (UniProt O60294) 0.007
LRRC8B (UniProt Q6P9F7) -0.044
LCMT1 (UniProt Q9UIC8) -0.006
LRBA, A0A494BZW2 -0.166
LMO2 isoform 3 (UniProt P25791) -0.051
LRRC8C (UniProt Q8TDW0) 0.142
LDAH isoform 2 (UniProt Q9H6V9) 0.023
LMAN2L isoform 2 (UniProt Q9H0V9) 0.042
LRCH4 (UniProt O75427) 0.18
LCP2 (UniProt Q13094) 0.038
LAS1L (UniProt Q9Y4W2) 0.008
LRWD1 (UniProt Q9UFC0) -0.05
LSM14B isoform 2 (UniProt Q9BX40) 0.024
LGALS8 isoform 2 (UniProt O00214) 0.054
LIMD1 (UniProt Q9UGP4) -0.009
LDHA isoform 3 (UniProt P00338) -0.004
LIN7C (UniProt Q9NUP9) -0.014
LRRC8D (UniProt Q7L1W4) -0.032
LIMA1 isoform 4 (UniProt Q9UHB6) 0.001
LRRC57 (UniProt Q8N9N7) 0.004
LMAN1 (UniProt P49257) 0.001
LMNB1 (UniProt P20700) 0.017
LSM2 (UniProt Q9Y333) -0.03
LINS1 (UniProt Q8NG48) -0.064
LIG1 (UniProt P18858) -0.001
LMBRD1 (UniProt Q9NUN5) -0.052
LRRCC1 (UniProt Q9C099) 0.027
LRCH3 (UniProt Q96II8) -0.029
LIG4 (UniProt P49917) -0.072
LRRC59 (UniProt Q96AG4) -0.006
LSR (UniProt Q86X29) -0.05
LIN9 isoform 2 (UniProt Q5TKA1) 0.004
LNPK (UniProt Q9C0E8) 0.063
